Counter-ions that a name gives are not always drawn. The list shows a part of the results. Hit calls seldom repeat between salt and free forms of one compound.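 Kinases, fused to nanoluciferase, were expressed in K562 cells; luminescence was measured every 4 h from 2 to 18 h as percent of control (DMSO = 100%, positive control = 0%). A time point is decreased if signal falls significantly (2 sigma). Hits were called by the authors by a rule that is not shown; the count of time points alone does not decide it.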
Key:
Test in all cases: number of time points (of 5) at which kinase-Nluc abundance scored as decreased, DMSO-normalised (count); higher = more persistent destabilization
Settings in all cases: K562; 2-18 h
NTRK3 = NTRK3 (UniProt Q16288)
PAK4 = PAK4 (UniProt O96013)
PBK = PBK (UniProt Q96KB5)
PDGFRB = PDGFRB (UniProt P09619)
PDK1 = PDK1 (UniProt Q15118)
PDPK1 = PDPK1 (UniProt O15530)
PIK4CA = PIK4CA (UniProt P42356)
PIK4CB = PIK4CB (UniProt Q9UBF8)
PLK1 = PLK1 (UniProt P53350)
PRKAA1 = PRKAA1 (UniProt Q13131)

Chains of the proteins cited; added tags and fusions are not shown. Lines headed by an entry give the natural chain unless they say otherwise; changes in a name come on top.
UniProt Q16288, whole entry, looked up: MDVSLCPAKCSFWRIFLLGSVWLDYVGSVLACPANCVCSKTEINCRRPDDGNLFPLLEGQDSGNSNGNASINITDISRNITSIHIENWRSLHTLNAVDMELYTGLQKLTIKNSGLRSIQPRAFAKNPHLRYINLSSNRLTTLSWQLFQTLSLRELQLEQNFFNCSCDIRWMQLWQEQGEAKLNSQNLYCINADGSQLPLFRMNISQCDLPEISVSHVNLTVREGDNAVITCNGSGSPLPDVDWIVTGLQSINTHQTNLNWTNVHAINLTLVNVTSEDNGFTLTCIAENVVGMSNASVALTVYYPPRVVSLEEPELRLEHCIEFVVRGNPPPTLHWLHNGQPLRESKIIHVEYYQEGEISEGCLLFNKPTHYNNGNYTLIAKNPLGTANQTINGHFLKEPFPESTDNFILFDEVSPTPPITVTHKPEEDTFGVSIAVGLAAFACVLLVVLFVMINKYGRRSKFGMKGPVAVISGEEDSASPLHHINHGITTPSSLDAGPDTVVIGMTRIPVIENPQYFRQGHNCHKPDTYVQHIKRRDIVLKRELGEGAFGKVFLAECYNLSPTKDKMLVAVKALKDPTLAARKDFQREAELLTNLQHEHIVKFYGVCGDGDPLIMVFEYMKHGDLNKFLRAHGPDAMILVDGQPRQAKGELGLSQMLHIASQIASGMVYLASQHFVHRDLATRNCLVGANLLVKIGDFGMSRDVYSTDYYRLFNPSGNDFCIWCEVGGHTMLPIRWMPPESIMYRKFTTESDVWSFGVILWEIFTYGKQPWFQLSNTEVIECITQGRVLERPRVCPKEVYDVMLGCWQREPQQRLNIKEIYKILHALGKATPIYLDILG
UniProt O96013: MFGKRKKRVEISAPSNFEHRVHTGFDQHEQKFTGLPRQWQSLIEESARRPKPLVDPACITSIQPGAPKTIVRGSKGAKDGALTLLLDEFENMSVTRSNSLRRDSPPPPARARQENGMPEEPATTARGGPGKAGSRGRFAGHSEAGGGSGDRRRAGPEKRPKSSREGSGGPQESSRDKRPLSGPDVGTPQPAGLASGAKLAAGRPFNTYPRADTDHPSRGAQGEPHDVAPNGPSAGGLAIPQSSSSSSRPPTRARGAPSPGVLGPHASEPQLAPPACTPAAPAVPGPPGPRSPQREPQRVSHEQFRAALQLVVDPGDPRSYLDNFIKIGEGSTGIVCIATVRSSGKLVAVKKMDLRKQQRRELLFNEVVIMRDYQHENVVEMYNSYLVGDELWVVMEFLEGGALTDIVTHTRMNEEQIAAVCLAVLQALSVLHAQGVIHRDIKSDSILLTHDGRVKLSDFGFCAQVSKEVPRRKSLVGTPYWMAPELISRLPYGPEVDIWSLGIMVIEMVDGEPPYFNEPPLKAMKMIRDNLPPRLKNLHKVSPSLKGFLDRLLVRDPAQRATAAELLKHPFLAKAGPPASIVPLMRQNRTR
UniProt Q96KB5: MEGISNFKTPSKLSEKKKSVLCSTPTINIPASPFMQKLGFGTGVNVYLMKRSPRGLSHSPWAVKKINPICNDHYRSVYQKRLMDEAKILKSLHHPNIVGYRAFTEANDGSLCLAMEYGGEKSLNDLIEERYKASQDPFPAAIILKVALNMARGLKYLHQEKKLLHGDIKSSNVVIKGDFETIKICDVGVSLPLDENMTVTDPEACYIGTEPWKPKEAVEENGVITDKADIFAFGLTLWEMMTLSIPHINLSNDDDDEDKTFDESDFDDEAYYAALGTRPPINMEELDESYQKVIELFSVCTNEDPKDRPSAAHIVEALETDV
UniProt Q15118, whole entry, looked up: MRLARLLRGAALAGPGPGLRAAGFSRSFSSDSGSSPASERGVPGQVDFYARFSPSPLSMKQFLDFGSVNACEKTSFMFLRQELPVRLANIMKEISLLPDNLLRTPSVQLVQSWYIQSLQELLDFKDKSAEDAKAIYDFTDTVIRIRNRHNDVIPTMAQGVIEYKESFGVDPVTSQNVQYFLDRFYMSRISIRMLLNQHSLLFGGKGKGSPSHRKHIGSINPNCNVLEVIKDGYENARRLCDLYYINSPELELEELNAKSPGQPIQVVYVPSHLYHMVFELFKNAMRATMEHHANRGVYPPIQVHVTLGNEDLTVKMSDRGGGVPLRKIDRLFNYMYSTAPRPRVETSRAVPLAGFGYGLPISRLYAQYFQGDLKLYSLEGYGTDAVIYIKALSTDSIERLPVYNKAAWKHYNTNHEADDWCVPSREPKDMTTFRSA
UniProt O15530: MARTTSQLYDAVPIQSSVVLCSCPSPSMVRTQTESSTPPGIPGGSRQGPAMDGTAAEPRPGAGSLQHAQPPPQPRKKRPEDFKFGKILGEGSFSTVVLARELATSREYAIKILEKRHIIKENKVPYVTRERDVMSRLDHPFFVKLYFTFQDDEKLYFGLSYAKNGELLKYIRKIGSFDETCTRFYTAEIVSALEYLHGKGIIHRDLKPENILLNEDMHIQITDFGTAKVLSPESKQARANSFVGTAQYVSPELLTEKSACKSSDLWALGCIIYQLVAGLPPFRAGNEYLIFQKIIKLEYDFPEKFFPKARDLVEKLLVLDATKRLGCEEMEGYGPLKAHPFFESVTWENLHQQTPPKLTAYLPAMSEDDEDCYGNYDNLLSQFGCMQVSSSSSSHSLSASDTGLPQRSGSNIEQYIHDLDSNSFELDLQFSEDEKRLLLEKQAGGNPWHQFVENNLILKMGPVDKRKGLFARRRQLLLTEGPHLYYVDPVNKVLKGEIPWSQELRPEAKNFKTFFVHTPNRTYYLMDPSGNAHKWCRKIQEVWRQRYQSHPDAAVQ
UniProt P42356, whole entry, looked up: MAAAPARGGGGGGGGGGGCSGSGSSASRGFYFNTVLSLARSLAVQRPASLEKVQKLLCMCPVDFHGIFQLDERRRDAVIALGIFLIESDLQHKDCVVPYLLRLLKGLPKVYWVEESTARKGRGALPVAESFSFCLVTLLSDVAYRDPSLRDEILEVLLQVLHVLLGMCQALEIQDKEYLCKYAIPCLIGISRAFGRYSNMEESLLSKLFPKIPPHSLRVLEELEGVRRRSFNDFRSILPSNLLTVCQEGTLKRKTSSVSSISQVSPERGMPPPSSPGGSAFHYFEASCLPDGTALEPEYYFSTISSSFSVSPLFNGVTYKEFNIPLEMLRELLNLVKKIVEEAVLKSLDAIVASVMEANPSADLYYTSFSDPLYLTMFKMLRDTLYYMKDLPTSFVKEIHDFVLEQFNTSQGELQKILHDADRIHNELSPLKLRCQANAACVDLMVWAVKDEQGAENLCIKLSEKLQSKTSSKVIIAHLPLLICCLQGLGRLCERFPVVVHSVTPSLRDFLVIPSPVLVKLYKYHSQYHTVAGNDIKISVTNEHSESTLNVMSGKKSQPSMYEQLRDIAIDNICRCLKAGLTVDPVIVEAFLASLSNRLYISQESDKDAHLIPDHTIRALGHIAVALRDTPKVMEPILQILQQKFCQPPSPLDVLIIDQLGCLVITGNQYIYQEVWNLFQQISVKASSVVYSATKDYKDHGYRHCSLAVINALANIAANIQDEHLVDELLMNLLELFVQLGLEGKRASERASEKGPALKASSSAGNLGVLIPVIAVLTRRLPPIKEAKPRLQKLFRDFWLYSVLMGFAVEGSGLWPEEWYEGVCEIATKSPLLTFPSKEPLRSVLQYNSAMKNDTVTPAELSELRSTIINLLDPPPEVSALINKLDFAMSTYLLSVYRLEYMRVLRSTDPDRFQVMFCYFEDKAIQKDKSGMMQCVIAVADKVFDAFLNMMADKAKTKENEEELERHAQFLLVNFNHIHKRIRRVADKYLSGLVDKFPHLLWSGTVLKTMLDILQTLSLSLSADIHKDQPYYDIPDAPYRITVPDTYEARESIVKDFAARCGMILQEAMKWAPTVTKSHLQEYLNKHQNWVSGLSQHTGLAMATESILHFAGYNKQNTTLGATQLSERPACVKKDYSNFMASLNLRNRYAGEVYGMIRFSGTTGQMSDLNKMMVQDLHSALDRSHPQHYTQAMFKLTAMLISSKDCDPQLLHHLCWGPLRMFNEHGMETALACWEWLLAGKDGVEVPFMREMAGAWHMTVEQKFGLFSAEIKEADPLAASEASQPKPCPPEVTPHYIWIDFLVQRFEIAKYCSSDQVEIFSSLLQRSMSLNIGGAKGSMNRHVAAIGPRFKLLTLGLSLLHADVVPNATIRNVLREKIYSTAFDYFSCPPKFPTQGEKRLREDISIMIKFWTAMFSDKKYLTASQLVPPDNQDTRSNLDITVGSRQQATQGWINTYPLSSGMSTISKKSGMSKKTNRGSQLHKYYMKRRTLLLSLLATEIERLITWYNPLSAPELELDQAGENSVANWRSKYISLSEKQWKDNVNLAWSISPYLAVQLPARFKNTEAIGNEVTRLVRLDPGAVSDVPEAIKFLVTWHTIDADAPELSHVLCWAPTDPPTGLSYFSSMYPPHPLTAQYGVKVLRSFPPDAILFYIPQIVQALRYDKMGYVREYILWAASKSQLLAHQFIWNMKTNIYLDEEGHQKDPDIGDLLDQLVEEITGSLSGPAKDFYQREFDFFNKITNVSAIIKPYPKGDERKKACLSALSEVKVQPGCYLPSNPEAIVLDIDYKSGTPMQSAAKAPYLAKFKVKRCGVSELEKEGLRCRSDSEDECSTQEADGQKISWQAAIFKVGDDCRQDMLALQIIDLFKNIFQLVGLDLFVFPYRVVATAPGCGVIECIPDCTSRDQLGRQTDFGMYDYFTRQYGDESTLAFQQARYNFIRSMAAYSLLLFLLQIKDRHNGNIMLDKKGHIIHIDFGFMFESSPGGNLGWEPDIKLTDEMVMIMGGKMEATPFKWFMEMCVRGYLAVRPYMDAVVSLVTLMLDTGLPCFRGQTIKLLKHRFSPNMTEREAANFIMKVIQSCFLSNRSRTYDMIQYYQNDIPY
UniProt P53350, whole entry: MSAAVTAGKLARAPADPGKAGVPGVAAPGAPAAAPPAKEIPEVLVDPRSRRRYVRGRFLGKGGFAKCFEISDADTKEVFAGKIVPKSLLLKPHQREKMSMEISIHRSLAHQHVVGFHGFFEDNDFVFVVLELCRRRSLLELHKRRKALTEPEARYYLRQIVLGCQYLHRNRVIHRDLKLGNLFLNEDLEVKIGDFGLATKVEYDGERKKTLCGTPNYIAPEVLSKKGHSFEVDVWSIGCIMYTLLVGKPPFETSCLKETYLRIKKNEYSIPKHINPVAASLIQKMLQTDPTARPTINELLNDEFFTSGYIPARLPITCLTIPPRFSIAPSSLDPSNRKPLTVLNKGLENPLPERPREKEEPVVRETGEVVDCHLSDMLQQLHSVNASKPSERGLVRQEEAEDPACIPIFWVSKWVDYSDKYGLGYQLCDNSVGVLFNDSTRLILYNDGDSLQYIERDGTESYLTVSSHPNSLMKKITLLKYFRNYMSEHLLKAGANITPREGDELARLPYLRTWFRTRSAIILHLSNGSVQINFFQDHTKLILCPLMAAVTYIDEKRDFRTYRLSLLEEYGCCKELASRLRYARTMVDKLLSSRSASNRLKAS
UniProt Q13131: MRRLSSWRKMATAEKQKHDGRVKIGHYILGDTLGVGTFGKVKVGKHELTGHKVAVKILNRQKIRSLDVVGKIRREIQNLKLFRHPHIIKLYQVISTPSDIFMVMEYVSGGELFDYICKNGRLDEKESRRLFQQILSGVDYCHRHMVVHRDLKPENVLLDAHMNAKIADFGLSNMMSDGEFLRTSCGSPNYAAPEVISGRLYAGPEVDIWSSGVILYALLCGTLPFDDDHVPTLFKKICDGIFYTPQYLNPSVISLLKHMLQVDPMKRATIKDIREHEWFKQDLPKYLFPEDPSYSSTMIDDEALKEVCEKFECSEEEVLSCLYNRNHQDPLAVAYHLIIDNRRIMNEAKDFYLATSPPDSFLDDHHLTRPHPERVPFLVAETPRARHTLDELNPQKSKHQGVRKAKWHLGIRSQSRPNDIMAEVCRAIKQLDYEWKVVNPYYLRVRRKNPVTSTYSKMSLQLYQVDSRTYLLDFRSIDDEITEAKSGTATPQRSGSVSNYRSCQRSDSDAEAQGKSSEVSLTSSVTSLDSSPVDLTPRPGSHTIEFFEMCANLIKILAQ

Measured: number of time points

CN(C)Cc1ccc(-c2cnn3c(-c4cccc(NC(=O)c5cccc(C(F)(F)F)c5)c4)ccnc23)cc1 (2.5 µM)
0: all assays above

CCN(CCO)CCCOc1ccc2c(Nc3cc(CC(=O)Nc4cccc(F)c4)[nH]n3)ncnc2c1 [Barasertib-HQPA] (10 µM)
0: all assays above

Cc1c[nH]c2ccccc12 [Skatole] (10 µM)
0: all assays above

Cc1c(C(=O)N2CCOc3ccc(-c4ccc(N)nc4)cc3C2)ccc(S(C)(=O)=O)c1F (10 µM)
4: PDPK1
0: all other assays above

COCCNCCc1cccc(Nc2ncc3c(n2)-c2ccccc2[C@H](c2ccccc2F)C3)c1 [Derazantinib] (2.5 µM)
0: all assays above

CNC(=O)c1cc(Oc2ccc(NC(=O)Nc3cc(C(C)(C)C)nn3-c3ccc4ncccc4c3)c(F)c2)ccn1 [Rebastinib] (2.5 µM)
4: PDGFRB | PDPK1 | PIK4CB
0: PAK4 | PBK | PDK1
3: all other assays above

CCCCOc1c(C(=O)c2c(F)cc(C)cc2F)c[nH]c2nncc1-2 (10 µM)
0: all assays above

CN1CCN(C2CCN(C(=O)Nc3cc(Oc4ccc(NC(=O)C5(C(=O)Nc6ccc(F)cc6)CC5)c(F)c4)ccn3)CC2)CC1 [Golvatinib] (2.5 µM)
2: PDGFRB | PDPK1
1: PRKAA1
0: all other assays above

Cc1c[nH]c2nccc(Oc3c(F)cc(Nc4cc(Cl)nc(N)n4)cc3F)c12 (10 µM)
1: PAK4
0: all other assays above

COc1cc2c(Nc3ccc(NC(=O)c4ccccc4)cc3)ncnc2cc1OCCCN1CCOCC1 (10 µM)
0: all assays above

Not a retest: 3 of the compounds above.
Cc1c[nH]c2ccccc12 [Skatole] (10 µM)
0: all assays above

Cc1c(C(=O)N2CCOc3ccc(-c4ccc(N)nc4)cc3C2)ccc(S(C)(=O)=O)c1F (10 µM)
4: PDPK1
0: all other assays above

COCCNCCc1cccc(Nc2ncc3c(n2)-c2ccccc2[C@H](c2ccccc2F)C3)c1 [Derazantinib] (2.5 µM)
0: all assays above

Remaining list, next part:

c1cc(OCCN2CCCCC2)cc(-c2n[nH]c3ccc(-c4nnc[nH]4)cc23)c1 [CC-401 (hydrochloride)] (10 µM)
1: PDPK1
0: all other assays above

COc1ccc(C=C(C#N)c2cccnc2)cc1OC (10 µM)
0: all assays above

C=CC(=O)N[C@H]1COC[C@H]1Nc1ncc2cc(-c3c(Cl)c(OC)cc(OC)c3Cl)c(=O)n(C)c2n1 (10 µM)
0: all assays above

Cc1ccc(NC(=O)c2cccc(N(C)C)c2)cc1NC(=O)c1ccc(O)cc1 (10 µM)
0: all assays above

C[C@]1(O)C[C@@H](c2nc(-c3ccc4ccc(-c5ccccc5)nc4c3)c3c(N)nccn32)C1 [Linsitinib] (2.5 µM)
0: all assays above

COc1cc(Nc2ncc3c(n2)-c2ccc(Cl)cc2C(c2c(F)cccc2OC)=NC3)ccc1C(=O)O [Alisertib] (2.5 µM)
0: all assays above

CC(C)=CC/C=C(\C)[C@H]1CC[C@]2(C)[C@@H]1[C@H](O)C[C@@H]1[C@@]3(C)CC[C@H](O[C@@H]4O[C@H](CO)[C@@H](O)[C@H](O)[C@H]4O[C@@H]4O[C@H](CO)[C@@H](O)[C@H](O)[C@H]4O)C(C)(C)[C@@H]3CC[C@]12C [Ginsenoside Rg5] (10 µM)
0: all assays above

CC(C)Oc1cc(Nc2nc(N[C@@H](C)c3ccc(F)cn3)ncc2Cl)n[nH]1 (10 µM)
0: all assays above

CN(C)C[C@@H]1CCn2cc(c3ccccc32)C2=C(C(=O)NC2=O)c2cn(c3ccccc23)CCO1 [Ruboxistaurin (hydrochloride)] (10 µM)
0: all assays above

CCN1C(=O)N(c2c(F)c(OC)cc(OC)c2F)Cc2cnc3[nH]c(CN4CCOCC4)cc3c21 [Pemigatinib] (10 µM)
0: all assays above

C/C=C(/C)C(=O)O[C@H]1Cc2cc3ccc(=O)oc3cc2OC1(C)C [Decursinol angelate] (10 µM)
0: all assays above

COc1cc(CCc2cc(-c3nc4ccc(N5CCN(C)CC5)cc4[nH]3)n[nH]2)cc(OC)c1 (10 µM)
4: PDPK1
0: all other assays above

O=C(O)CCNC(=O)c1ccc(/N=N/c2ccc(O)c(C(=O)O)c2)cc1 [Balsalazide] (10 µM)
0: all assays above

Cc1cc(F)c(C(=O)Nc2cccc(-c3nncn3C(C)C)n2)cc1-n1cnc(C2CC2)c1 [Selonsertib] (10 µM)
0: all assays above

CC(C)(C#N)c1ccc(N2C(=O)OCc3cnc4ccc(-c5cnc6ccccc6c5)cc4c32)cc1 (2.5 µM)
0: all assays above

C=CC(=O)N1CC[C@H](n2nc(C#Cc3cc(OC)cc(OC)c3)c3c(N)ncnc32)C1 [Futibatinib] (10 µM)
0: all assays above

O=c1c(O)c(-c2ccc(O)c(O)c2)oc2cc(O)cc(O)c12 [Quercetin (dihydrate)] (10 µM)
2: PDPK1
0: all other assays above

Cc1cccc([C@@H](CO)NC(=O)[C@@H](C)N2Cc3ccc(-c4nc(NC5CCOCC5)ncc4Cl)cc3C2=O)c1 [ERK1/2 inhibitor 1] (10 µM)
0: all assays above

CCN1CCN(c2ccc(Nc3cc(N(C)C(=O)Nc4c(Cl)c(OC)cc(OC)c4Cl)ncn3)cc2)CC1 [Infigratinib] (10 µM)
0: all assays above

CCn1cc(-c2ccnc3[nH]c(-c4cccc(CN(C)C)c4)cc23)c(-c2ccc(NC(=O)N(C)C)cc2)n1 (2.5 µM)
0: all assays above

CCN(CC)CCCCNc1ncc2cc(-c3c(Cl)cccc3Cl)c(NC(=O)NC(C)(C)C)nc2n1 (2.5 µM)
2: PDGFRB
1: NTRK3
0: all other assays above

COc1cc(F)cc([C@@H](CO)NC(=O)[C@@H](C)N2Cc3ccc(-c4nc(NC5CCOCC5)ncc4Cl)cc3C2=O)c1 [ERK1/2 inhibitor 2] (10 µM)
0: all assays above

CCOc1cc2ncc(-c3cc(N)nc(F)c3)n2cc1S(=O)(=O)C(C)(C)C (10 µM)
0: all assays above

COc1cc(C)c(Sc2cnc(NC(=O)c3ccc(CNC(C)C(C)(C)C)cc3)s2)cc1C(=O)N1CCN(C(C)=O)CC1 (stereo not given) (2.5 µM)
0: all assays above

COc1nccc(-c2c(-c3ccc(F)cc3)ncn2C2CCC(O)CC2)n1 (stereo not given) (10 µM)
0: all assays above

CC(C)(/C=C(\C#N)C(=O)N1CCC[C@@H](n2nc(-c3ccc(Oc4ccccc4)cc3F)c3c(N)ncnc32)C1)N1CCN(C2COC2)CC1 (2.5 µM)
0: all assays above
